From patent US20190382474A1
No constants are given. Whether binding was seen depends on the method and setting. Some binding calls cover weakened binding; strength is not graded here.

Target: recombinant human IL-27 (human) (UniProt Q14213)
Assay: SPR single cycle kinetics, 1:1 model

binding | Binder
binds | Ab7.4 (antibody, human IgG1, kappa, V domains shown) VH: EVKLVESGGGLVQPGGSLRLSCAASGFTFTSYSMSWVRQAPGKGLEWVAYISYDGGSAYYPDTVKGRFTISRDNSKKTLYLQMSSLKSEDTAMYYCARHGDYDDDDAMDYWGQGTSVTVSS VL: DIQMTQSPSSLSASVGDRVTITCRASENIYSYLAWYQQKQGKAPKLLVYNAETLTEGVPSRFSGSGSGTDFTLTISSLQPEDFANYYCQHHYGTPLTFGQGTKLDIKR
binds | Ab7.5 (antibody, human IgG1, kappa, V domains shown) VH: EVKLVESGGGLVQPGGSLRLSCAASGFTFTSYSMSWVRQAPGKGLEWVAYISYDGGSAYYPDTVKGRFTISRDNSKKTLYLQMSSLKSEDTAMYYCARHGDYDDDDAMDYWGQGTSVTVSS VL: DIQMTQSPSSLSASVGDRVTITCRASENIYSYLAWYQQKPGKAPKLLVYNAETLTEGVPSRFSGSGSGTDFTLTISSLQPEDFANYYCQHHYGTPLTFGQGTKLEIKR
